From patent US20220298222A1, “COMBINATION THERAPY OF A T CELL THERAPY AND AN ENHANCER OF ZESTE HOMOLOG 2 (EZH2) INHIBITOR AND RELATED METHODS” (Juno Therapeutics, Inc., priority 2019, published 2022)
At least one compound was matched to its structure with a doubt left.

Assays:
[1] = test system: trimethylation status of histone 3 lysine 27 (H3K27Me3) in the GCB DLBCL cell lines; assay: H3K27Me3 levels by Western blot in GCB DLBCL cell lines; type: cell-based; settings: 0.1 μM or 1.0 μM, 6 days; all four DLBCL cell lines
[2] = test system: ABC cell lines (SU-DHL-2 and OCI-LY3); assay: Cell viability by ATP luminescence-based assay, ABC cell lines; settings: 6 days, 1.0 μM EPZ-6438, 0.1 μM or 1.0 μM CPI-1205, wild type EZH2
[3] = test system: GCB cell lines (WSU-DLCL2, Farage, KARPAS-422, and SU-DHL-5); assay: Cell viability by ATP luminescence-based assay, GCB cell lines; settings: 6 days; 1.0 μM EPZ-6438, 0.1 μM or 1.0 μM CPI-1205; mutant and wild type GCB cell lines

## CCN(c1cc(-c2ccc(CN3CCOCC3)cc2)cc(C(=O)NCc2c(C)cc(C)[nH]c2=O)c1C)C1CCOCC1 [EPZ-6438, tazemetostat]
[1]
  H3K27Me3 levels (Western blot): decrease in H3K27Me3 levels
[2]
  cell viability (ATP): resistant
[3]
  cell viability (ATP): decreased cell viability
